Reference: article doi:10.1101/341834
Results are given in words; binding and its absence hold for the method and conditions named. For some assays here: A result given as binding can be weak or reduced; the word gives no strength. Values belong to the molecule of their own block, whether it stands above or below them.

Chains of the proteins cited; added tags and fusions are not shown.
UniProt P93002: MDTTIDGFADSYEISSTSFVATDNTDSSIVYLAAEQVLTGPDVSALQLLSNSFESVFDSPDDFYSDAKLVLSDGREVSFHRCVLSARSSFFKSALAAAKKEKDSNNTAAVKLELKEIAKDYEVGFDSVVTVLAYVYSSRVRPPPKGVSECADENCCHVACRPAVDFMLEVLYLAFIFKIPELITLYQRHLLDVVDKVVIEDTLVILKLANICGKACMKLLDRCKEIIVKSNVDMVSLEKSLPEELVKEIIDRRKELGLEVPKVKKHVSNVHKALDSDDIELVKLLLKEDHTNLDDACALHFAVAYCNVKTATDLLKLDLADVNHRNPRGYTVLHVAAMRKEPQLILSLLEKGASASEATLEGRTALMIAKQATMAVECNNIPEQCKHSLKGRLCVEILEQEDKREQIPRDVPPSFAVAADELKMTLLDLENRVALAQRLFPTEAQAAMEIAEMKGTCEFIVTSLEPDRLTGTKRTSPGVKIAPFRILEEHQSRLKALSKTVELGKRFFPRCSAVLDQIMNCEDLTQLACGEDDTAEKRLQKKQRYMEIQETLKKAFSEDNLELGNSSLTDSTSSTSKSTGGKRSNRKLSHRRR

What was measured:
[1] = target: GBD–NtNPR1 (tobacco (N. tabacum)) (UniProt Q8LL13); test: yeast three-hybrid
GBD–AtNPR1 (Arabidopsis) = GBD–AtNPR1 (Arabidopsis) (UniProt P93002); test: two-hybrid
[2] = target: GBD–NtNPR1 (tobacco (N. tabacum)) (UniProt Q8LL13); test: two-hybrid
[3] = target: GBD–NtTGA1aΔ1 (tobacco (N. tabacum)); test: two-hybrid
[4] = target: GBD–TGA7Δ1 (tobacco (N. tabacum)); test: two-hybrid
[5] = target: NtNPR1(386-525) (tobacco (N. tabacum)); test: two-hybrid
[6] = target: GBD–NtNPR1 (tobacco (N. tabacum)) (UniProt Q8LL13); test: two-hybrid; remark: listed apart in the source
[7] = target: NtNPR1(1-465) (tobacco (N. tabacum)); test: two-hybrid
[8] = target: GBD–NtTGA2.2 (tobacco (N. tabacum)) (UniProt Q9SQK1); test: two-hybrid

binding [1]: binds
Molecule: NtNIMIN2c expressed from the MET25 promoter (from UniProt A0FJY4)

binding [1]: binds
Molecule: NtNIMIN2a expressed from the MET25 promoter (from UniProt O82448)

binding (GBD–AtNPR1 (Arabidopsis)): binds
binding [2]: binds weakly
Molecule: GAD–NtTGA2.2 (from UniProt Q9SQK1)

Further lines, the molecule ahead of its results:

B1: GAD–NtTGA1a (protein, UniProt P14232 1-359)
chain: MGICDPIHQLGMWDDFNSSFPSTSATMILEVDKCLEDQIPIMEKRLDNETEDTSHGTVGTSNRYEPETSKPVEKVLRRLAQNREAARKSRLRKKAYVQQLENSKLKLIQLEQELERARKQGMCVGGGVDASQLSYSGTASSGTAVFDMEYGHWVEEQTRQTNDLRIALHSQIGEAELRIIVDGYLNHYFDLFRMKATAAKADVLYIMSGMWKTSAERFFMWIGGFRPSELLKVLTPHLELLTEQQLREVCNLTQSCQQAEDALSQGMVKLHQILAEAVAAGRLGEGNYTLPQMGPAIEKLEDLVRFVNQADHLRQETLQQMSRILNTCQAAQGLLALGEYFERLRVLSSQWATRLREPT
binding [3]: binds
binding [4]: binds

B2: GAD–NtTGA2.1 (protein, UniProt O24160 1-456)
chain: MASKIGTAGNRSGTTGMPSFISQIPVSNPMGTEANNTNTSRMSDFGVLEQYLGFRIGDGANVNRSPLFNSTSATNPAVGFEVSGTINRTLAPSNTSLPTATPRSQTMLLQSNLVSASGTHHENWGESNMADSGSRTDTSTDMDGDDKNQLIEAGQSSDKSKEKVLDQKTLRRLAQNREAARKSRLRKKAYVQQLENSRLKLSQLEQDLQRARQQGKYISNIADQSNGVGANGPLAFDAEYSRWLEEHNKHINELRTAVNAHASDPELRSIVNNVTAHFDEVFRVKGNAAKADVFHVLSGMWKTPAERCFMWIGGFRPSELLKLLVNQLEPLTEQQLAGIYNLQQSSHQAEDALSQGMEALQQSLAETLANGSPAPEGSSGDVANYMGQMAMAMGKLGTLEGFLRQADNLRQQTLQQMHRVLTTRQSARALLAINEYFSRLRALSSLWLARPREQLV
binding [3]: binds
binding [4]: binds
binding [5]: no binding
binding [6]: binds weakly
binding [7]: binds
binding [8]: binds

B3: AtGRXC6 (protein, UniProt Q8L9S3 1-144)
chain: MMQELGLQRFSNDVVRLDLTPPSQTSSTSLSIDEEESTEAKIRRLISEHPVIIFSRSSCCMCHVMKRLLATIGVIPTVIELDDHEVSSLPTALQDEYSGGVSVVGPPPAVFIGRECVGGLESLVALHLSGQLVPKLVQVGALWV
binding [4]: binds

B4: AtGRXC9 (protein, UniProt Q9SGP6 1-137)
chain: MQGTISCARNYNMTTTVGESLRPLSLKTQGNGERVRMVVEENAVIVIGRRGCCMCHVVRRLLLGLGVNPAVLEIDEEREDEVLSELENIGVQGGGGTVKLPAVYVGGRLFGGLDRVMATHISGELVPILKEVGALWL
binding [4]: binds
